{"source": "paper PMC7819943", "about": "“Rice protein-binding microarrays: a tool to detect cis-acting elements near promoter regions in rice”", "note": "Some of the results follow.", "data": [{"molecular_target": "T1, OsSMF1 (Oryza sativa, UniProt Q6ZLB0 1-436)", "T1 sequence": "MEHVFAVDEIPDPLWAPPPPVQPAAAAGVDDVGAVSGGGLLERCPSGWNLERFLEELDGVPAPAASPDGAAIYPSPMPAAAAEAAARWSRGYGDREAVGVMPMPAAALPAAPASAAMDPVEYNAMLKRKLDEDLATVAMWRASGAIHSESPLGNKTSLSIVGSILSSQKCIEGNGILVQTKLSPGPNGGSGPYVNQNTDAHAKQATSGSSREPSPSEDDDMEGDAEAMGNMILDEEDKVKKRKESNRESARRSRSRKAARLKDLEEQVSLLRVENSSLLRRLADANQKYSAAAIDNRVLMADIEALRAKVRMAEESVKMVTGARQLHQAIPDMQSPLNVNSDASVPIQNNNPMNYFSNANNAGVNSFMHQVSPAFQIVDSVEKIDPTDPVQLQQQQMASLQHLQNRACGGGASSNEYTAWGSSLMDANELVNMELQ", "experiment": "protein-binding microarray (RPBM); PBS, 2% BSA, 51.3 ng/ul salmon testes DNA, 50 uM zinc acetate, 200 nM TF, 25 C, 1 h; high values mean tight binding", "settings": "protein: recombinant; tags: N-terminal polyhistidine and DsRed monomer fusion (pET32a); chain copies: 2; label: CyDye5-dUTP incorporated in the synthesized complementary strand; 3' TTTTT single-stranded linker to array surface; dsDNA, one strand shown", "in_short": "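Transcription factors were made in E. coli BL21-CodonPlus as N-terminal fusions to a polyhistidine tag and DsRed, then purified on Ni–NTA. After primer extension with Cy5-dUTP and blocking with 2% BSA, a custom Agilent array was exposed for 1 h at 25 °C to 200 nM protein in PBS, 2% BSA, salmon testes DNA and 50 µM zinc acetate. Washed arrays were scanned on an Axon 4000B, and the binding signal is per-feature fluorescence intensity in arbitrary units.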", "values": [{"sequence": "GGAAGTCAGTGACGCGTCAGGCAGCAGACAACGTGGGTGTCGGAGTCACCTAGTGCAG", "binding signal": "10800 fluorescence intensity (a.u.)"}, {"sequence": "CTTTTAATTTCCCTCGTGTCATGTATAGTAGTACTCCACCCGGAGTCACCTAGTGCAG", "binding signal": "4220 fluorescence intensity (a.u.)"}, {"sequence": "TGAATAGTACTTTATGTGTATGTGTGACGTGACTATTTTCCGGAGTCACCTAGTGCAG", "binding signal": "6750 fluorescence intensity (a.u.)"}, {"sequence": "CTCCAGCTTATTCAATCTTGTTCTGAACAAATGATCTCTCCGGAGTCACCTAGTGCAG", "binding signal": "3340 fluorescence intensity (a.u.)"}, {"sequence": "ATCCGATTCCGGTTTTATCCTACGTGGCAGCTGAGTCAGCCGGAGTCACCTAGTGCAG", "binding signal": "30800 fluorescence intensity (a.u.)"}, {"sequence": "GATGACAGGTGGGGCCCACATGTCAGTGGACCCCACAATTCGGAGTCACCTAGTGCAG", "binding signal": "26100 fluorescence intensity (a.u.)"}, {"sequence": "TTTTATGTATTTGACCATAAAACGAGATTTGATGAAATTTCGGAGTCACCTAGTGCAG", "binding signal": "27200 fluorescence intensity (a.u.)"}, {"sequence": "CAACCTGCCAAATATCATGTGTACATGCTGGCACGTCAATCGGAGTCACCTAGTGCAG", "binding signal": "4660 fluorescence intensity (a.u.)"}, {"sequence": "AGTTGTTGTTTCATAGTTGAGTTTTGGTCGTGTCAACATTCGGAGTCACCTAGTGCAG", "binding signal": "3200 fluorescence intensity (a.u.)"}, {"sequence": "AAAAGAAAAGAAATAAAGAATGAGTCGTCATCACCAGCAACGGAGTCACCTAGTGCAG", "binding signal": "3810 fluorescence intensity (a.u.)"}, {"sequence": "GGATTTGTCCAATGATGATGATGAGTAAAATGAGTTGGCGCGGAGTCACCTAGTGCAG", "binding signal": "4930 fluorescence intensity (a.u.)"}, {"sequence": "ACCGACGCGGACAGCCACAGTCCAGTCACACACCACACCACGGAGTCACCTAGTGCAG", "binding signal": "5320 fluorescence intensity (a.u.)"}, {"sequence": "TGGCAAGGGGCGGCGGCGGCTGGTGAGGGGCGCCGGCCGCCGGAGTCACCTAGTGCAG", "binding signal": "16100 fluorescence intensity (a.u.)"}, {"sequence": "CCAGTATTGTTTGCATGATAAAATCTGTATACTCTACTATCGGAGTCACCTAGTGCAG", "binding signal": "3300 fluorescence intensity (a.u.)"}, {"sequence": "CAGCAGAGGATCAAGCTGGCCAAGCTGCATCGTCACCATTCGGAGTCACCTAGTGCAG", "binding signal": "3960 fluorescence intensity (a.u.)"}, {"sequence": "TACAATTCACCTAATTGGAAATATGCCATTACAATTCTGCCGGAGTCACCTAGTGCAG", "binding signal": "6760 fluorescence intensity (a.u.)"}, {"sequence": "ACTTTTATTTGGGACACGTGTACATAACTCTTTCGGTCCGCGGAGTCACCTAGTGCAG", "binding signal": "22100 fluorescence intensity (a.u.)"}, {"sequence": "TCTTTGGTGATGGATAATAACCCGATATAAACAATATAGACGGAGTCACCTAGTGCAG", "binding signal": "65000 fluorescence intensity (a.u.)"}, {"sequence": "GCACGCGCGGCGCCCGCTGCCCGGCGGCGCACACGTCGCGCGGAGTCACCTAGTGCAG", "binding signal": "3510 fluorescence intensity (a.u.)"}, {"sequence": "CGCATGACCATGCTACACATCTCATCGACCATCACCTCTCCGGAGTCACCTAGTGCAG", "binding signal": "3300 fluorescence intensity (a.u.)"}, {"sequence": "ACGATGCCCTAGCTCACAATCTTTCTATATAAATACCCACCGGAGTCACCTAGTGCAG", "binding signal": "32800 fluorescence intensity (a.u.)"}, {"sequence": "GCCGGTGATCCGCCGACGAGTCAGCGCCGCCTCACGCCGGCGGAGTCACCTAGTGCAG", "binding signal": "4600 fluorescence intensity (a.u.)"}, {"sequence": "AGCAGCAACCAGCAGGGAGAAAGCAATCAGCAGCACTCCACGGAGTCACCTAGTGCAG", "binding signal": "3830 fluorescence intensity (a.u.)"}, {"sequence": "TCCGGAGAGTTGACGCAGCGTCAACCGGGTCCGTCGTTCTCGGAGTCACCTAGTGCAG", "binding signal": "3800 fluorescence intensity (a.u.)"}, {"sequence": "TCCCGCAAAGTTTCCCACACTACTACAAAACATCAAATAGCGGAGTCACCTAGTGCAG", "binding signal": "4470 fluorescence intensity (a.u.)"}, {"sequence": "AGTAATGCCAGCTAACGACCATAAATGGCTCTCTGAAAGGCGGAGTCACCTAGTGCAG", "binding signal": "3840 fluorescence intensity (a.u.)"}, {"sequence": "CCCCAAGATACCTGTGCGCGCGGCGCTGTGGCGTGACGCTCGGAGTCACCTAGTGCAG", "binding signal": "3300 fluorescence intensity (a.u.)"}, {"sequence": "GTTGAGTTCGAAAACAATATAGATTGAGCATTCCAATATGCGGAGTCACCTAGTGCAG", "binding signal": "36400 fluorescence intensity (a.u.)"}, {"sequence": "AATTTTATATACTAGAGGAGTTGAATCACCTAAGGTGAATCGGAGTCACCTAGTGCAG", "binding signal": "3590 fluorescence intensity (a.u.)"}, {"sequence": "CTACTATACCTCCGTGCGTACCACATACTGTATGTAGACTCGGAGTCACCTAGTGCAG", "binding signal": "4130 fluorescence intensity (a.u.)"}, {"sequence": "CTATCGCTATCCACTTCGTCCCCGCGTCGCGTGGCCCGAACGGAGTCACCTAGTGCAG", "binding signal": "4980 fluorescence intensity (a.u.)"}, {"sequence": "GTGGACATGTTTAGCTTTGATGAATCATAAGCGATTGTGGCGGAGTCACCTAGTGCAG", "binding signal": "3910 fluorescence intensity (a.u.)"}, {"sequence": "GTCTCTGACTCAGTCTGGATGATCGAAGTCAGCTCGTCACCGGAGTCACCTAGTGCAG", "binding signal": "6200 fluorescence intensity (a.u.)"}, {"sequence": "TCGCCGGGCTTCTCTACGAGTACCTCGTCATCCCGTCCACCGGAGTCACCTAGTGCAG", "binding signal": "5700 fluorescence intensity (a.u.)"}, {"sequence": "ACCACACGTTATAATACATGTGGTTTTCCACAACTTTAACCGGAGTCACCTAGTGCAG", "binding signal": "24700 fluorescence intensity (a.u.)"}, {"sequence": "ATTTATCTACGTCACCGTAGTTTTACTCATGATGACGTAGCGGAGTCACCTAGTGCAG", "binding signal": "7780 fluorescence intensity (a.u.)"}, {"sequence": "AACGTGCGAATCAACTGTCAATTAATTCTGACATGAACCTCGGAGTCACCTAGTGCAG", "binding signal": "3220 fluorescence intensity (a.u.)"}, {"sequence": "GGCCAGGCCACCCCAACACGCCAGCCTCCCGGGCCGTTGACGGAGTCACCTAGTGCAG", "binding signal": "3250 fluorescence intensity (a.u.)"}, {"sequence": "AATTTGAAGCGACACGTCTCCTAGCTAACAAAACGCAGCACGGAGTCACCTAGTGCAG", "binding signal": "4290 fluorescence intensity (a.u.)"}, {"sequence": "CTAATACCGACCAACACGTATTGGCCTGGTACTGACTGGTCGGAGTCACCTAGTGCAG", "binding signal": "3760 fluorescence intensity (a.u.)"}, {"sequence": "ACTGTGTGGCGTGTCAGTATTGTTTTGTCACGTCAGACGACGGAGTCACCTAGTGCAG", "binding signal": "8470 fluorescence intensity (a.u.)"}, {"sequence": "AATTCCTCCCTTATATATAATCCTAGTCAGATTCTTGTATCGGAGTCACCTAGTGCAG", "binding signal": "7700 fluorescence intensity (a.u.)"}]}]}
